Results on 4 molecules are retold here after PMC12490858.

Results are given in words; binding and its absence hold for the method and conditions named. Some binding calls cover weakened binding; strength is not graded here.

Common to all, as to assay: urea ChIP-Western; formaldehyde-crosslinked thymocyte chromatin purified by 8 M urea ultracentrifugation and sonicated (~10 ug chromatin-DNA); immunoprecipitated with the indicated antibody on Protein-A beads, washed 6 times, reverse-crosslinked at 65 C; released proteins detected by western blot
For orientation: Immunoblotting shows a protein as a band on a membrane.

In assay [1] the target is T1, CCCTC-binding factor (CTCF) (mouse (endogenous in thymocytes)) (UniProt Q61164).
T1 sequence: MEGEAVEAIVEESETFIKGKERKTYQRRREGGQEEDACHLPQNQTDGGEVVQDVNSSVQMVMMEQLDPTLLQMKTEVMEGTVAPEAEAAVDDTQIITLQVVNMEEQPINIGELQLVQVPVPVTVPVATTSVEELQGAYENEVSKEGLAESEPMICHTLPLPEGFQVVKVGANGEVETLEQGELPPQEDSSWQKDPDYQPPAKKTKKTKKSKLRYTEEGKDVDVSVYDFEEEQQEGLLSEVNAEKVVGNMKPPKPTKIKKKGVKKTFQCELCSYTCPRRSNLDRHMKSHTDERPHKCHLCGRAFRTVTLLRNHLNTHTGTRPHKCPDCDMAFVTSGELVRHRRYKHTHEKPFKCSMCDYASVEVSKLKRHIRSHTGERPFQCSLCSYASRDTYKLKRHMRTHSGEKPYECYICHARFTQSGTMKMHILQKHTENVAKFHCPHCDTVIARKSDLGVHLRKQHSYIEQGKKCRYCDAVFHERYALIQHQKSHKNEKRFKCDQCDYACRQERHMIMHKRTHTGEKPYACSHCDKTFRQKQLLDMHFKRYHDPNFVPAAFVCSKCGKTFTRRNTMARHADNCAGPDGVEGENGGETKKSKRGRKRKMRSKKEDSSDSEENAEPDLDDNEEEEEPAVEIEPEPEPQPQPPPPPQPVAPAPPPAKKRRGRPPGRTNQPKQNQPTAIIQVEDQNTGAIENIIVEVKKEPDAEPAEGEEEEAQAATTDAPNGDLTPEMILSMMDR

In assay [2] the target is T2, SATB1 (mouse (endogenous in thymocytes)) (UniProt Q60611).
T2 sequence: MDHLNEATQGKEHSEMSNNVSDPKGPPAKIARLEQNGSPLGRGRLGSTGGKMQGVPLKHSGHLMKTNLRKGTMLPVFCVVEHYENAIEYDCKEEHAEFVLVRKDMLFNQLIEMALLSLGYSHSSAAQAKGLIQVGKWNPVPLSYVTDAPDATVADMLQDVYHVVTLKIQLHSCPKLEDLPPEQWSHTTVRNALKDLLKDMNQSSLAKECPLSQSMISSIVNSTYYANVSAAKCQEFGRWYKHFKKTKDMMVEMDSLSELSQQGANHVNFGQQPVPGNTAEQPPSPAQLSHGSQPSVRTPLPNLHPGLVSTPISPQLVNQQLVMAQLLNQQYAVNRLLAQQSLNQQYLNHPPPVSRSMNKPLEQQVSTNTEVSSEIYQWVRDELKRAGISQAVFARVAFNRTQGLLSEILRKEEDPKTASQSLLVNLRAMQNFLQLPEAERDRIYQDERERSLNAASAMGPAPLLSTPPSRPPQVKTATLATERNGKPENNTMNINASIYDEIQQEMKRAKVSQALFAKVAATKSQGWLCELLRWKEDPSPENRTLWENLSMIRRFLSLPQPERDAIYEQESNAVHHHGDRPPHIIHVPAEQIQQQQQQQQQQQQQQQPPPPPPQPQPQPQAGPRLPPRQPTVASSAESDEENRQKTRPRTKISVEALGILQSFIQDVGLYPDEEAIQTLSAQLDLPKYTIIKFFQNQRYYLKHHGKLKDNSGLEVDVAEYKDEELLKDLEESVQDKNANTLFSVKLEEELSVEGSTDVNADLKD

In assay [3] the target is T3, RAD21 (a cohesin complex component) (mouse (endogenous in thymocytes)) (UniProt Q61550).
T3 sequence: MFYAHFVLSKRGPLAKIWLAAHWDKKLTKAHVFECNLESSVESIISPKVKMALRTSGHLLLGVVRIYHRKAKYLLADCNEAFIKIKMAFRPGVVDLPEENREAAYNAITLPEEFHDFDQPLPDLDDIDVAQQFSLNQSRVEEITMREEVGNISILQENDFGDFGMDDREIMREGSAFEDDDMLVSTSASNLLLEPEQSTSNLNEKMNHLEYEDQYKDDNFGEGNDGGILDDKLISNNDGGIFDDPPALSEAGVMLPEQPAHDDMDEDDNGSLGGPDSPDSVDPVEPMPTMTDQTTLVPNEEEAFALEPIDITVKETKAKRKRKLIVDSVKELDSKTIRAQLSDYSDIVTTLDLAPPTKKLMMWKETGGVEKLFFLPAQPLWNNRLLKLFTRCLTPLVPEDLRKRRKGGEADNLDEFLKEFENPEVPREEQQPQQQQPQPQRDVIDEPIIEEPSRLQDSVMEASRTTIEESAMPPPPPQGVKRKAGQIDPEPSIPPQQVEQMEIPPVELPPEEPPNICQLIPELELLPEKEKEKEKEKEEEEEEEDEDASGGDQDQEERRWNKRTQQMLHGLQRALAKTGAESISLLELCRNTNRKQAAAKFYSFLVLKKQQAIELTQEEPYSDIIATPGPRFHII

Assay [4] has as its target T4, SATB1 (mouse (endogenous in thymocytes)), Q60611.
T4 chain: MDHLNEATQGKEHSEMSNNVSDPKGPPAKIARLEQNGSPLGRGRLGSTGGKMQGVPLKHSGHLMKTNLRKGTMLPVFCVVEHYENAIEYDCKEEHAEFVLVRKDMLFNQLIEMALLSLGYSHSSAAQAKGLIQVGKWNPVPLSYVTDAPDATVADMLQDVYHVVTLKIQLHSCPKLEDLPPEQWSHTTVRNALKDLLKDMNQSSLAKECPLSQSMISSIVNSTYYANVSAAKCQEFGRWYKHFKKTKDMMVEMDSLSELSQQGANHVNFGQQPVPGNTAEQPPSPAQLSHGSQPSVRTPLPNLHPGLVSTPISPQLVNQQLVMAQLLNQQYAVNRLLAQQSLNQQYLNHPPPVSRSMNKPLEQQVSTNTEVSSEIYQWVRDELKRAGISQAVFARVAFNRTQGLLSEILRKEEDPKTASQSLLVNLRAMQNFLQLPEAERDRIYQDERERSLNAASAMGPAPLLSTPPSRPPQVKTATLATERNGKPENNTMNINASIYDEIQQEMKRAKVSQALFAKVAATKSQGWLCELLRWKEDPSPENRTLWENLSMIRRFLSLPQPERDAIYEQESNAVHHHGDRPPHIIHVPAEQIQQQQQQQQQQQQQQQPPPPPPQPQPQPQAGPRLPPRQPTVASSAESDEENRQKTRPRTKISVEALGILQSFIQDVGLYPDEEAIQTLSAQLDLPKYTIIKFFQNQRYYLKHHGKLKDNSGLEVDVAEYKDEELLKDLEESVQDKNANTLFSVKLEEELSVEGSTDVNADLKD
To be noted: remark: other sources report otherwise.

B1: RAD21 (a cohesin complex component) (protein, UniProt Q61550 1-635)
chain: MFYAHFVLSKRGPLAKIWLAAHWDKKLTKAHVFECNLESSVESIISPKVKMALRTSGHLLLGVVRIYHRKAKYLLADCNEAFIKIKMAFRPGVVDLPEENREAAYNAITLPEEFHDFDQPLPDLDDIDVAQQFSLNQSRVEEITMREEVGNISILQENDFGDFGMDDREIMREGSAFEDDDMLVSTSASNLLLEPEQSTSNLNEKMNHLEYEDQYKDDNFGEGNDGGILDDKLISNNDGGIFDDPPALSEAGVMLPEQPAHDDMDEDDNGSLGGPDSPDSVDPVEPMPTMTDQTTLVPNEEEAFALEPIDITVKETKAKRKRKLIVDSVKELDSKTIRAQLSDYSDIVTTLDLAPPTKKLMMWKETGGVEKLFFLPAQPLWNNRLLKLFTRCLTPLVPEDLRKRRKGGEADNLDEFLKEFENPEVPREEQQPQQQQPQPQRDVIDEPIIEEPSRLQDSVMEASRTTIEESAMPPPPPQGVKRKAGQIDPEPSIPPQQVEQMEIPPVELPPEEPPNICQLIPELELLPEKEKEKEKEKEEEEEEEDEDASGGDQDQEERRWNKRTQQMLHGLQRALAKTGAESISLLELCRNTNRKQAAAKFYSFLVLKKQQAIELTQEEPYSDIIATPGPRFHII
Take B1: the figures for the binding result in assay [1] and in assay [2] were “binds weakly” and “no binding”, respectively.

B2: SATB1 (protein, UniProt Q60611 1-764)
chain: MDHLNEATQGKEHSEMSNNVSDPKGPPAKIARLEQNGSPLGRGRLGSTGGKMQGVPLKHSGHLMKTNLRKGTMLPVFCVVEHYENAIEYDCKEEHAEFVLVRKDMLFNQLIEMALLSLGYSHSSAAQAKGLIQVGKWNPVPLSYVTDAPDATVADMLQDVYHVVTLKIQLHSCPKLEDLPPEQWSHTTVRNALKDLLKDMNQSSLAKECPLSQSMISSIVNSTYYANVSAAKCQEFGRWYKHFKKTKDMMVEMDSLSELSQQGANHVNFGQQPVPGNTAEQPPSPAQLSHGSQPSVRTPLPNLHPGLVSTPISPQLVNQQLVMAQLLNQQYAVNRLLAQQSLNQQYLNHPPPVSRSMNKPLEQQVSTNTEVSSEIYQWVRDELKRAGISQAVFARVAFNRTQGLLSEILRKEEDPKTASQSLLVNLRAMQNFLQLPEAERDRIYQDERERSLNAASAMGPAPLLSTPPSRPPQVKTATLATERNGKPENNTMNINASIYDEIQQEMKRAKVSQALFAKVAATKSQGWLCELLRWKEDPSPENRTLWENLSMIRRFLSLPQPERDAIYEQESNAVHHHGDRPPHIIHVPAEQIQQQQQQQQQQQQQQQPPPPPPQPQPQPQAGPRLPPRQPTVASSAESDEENRQKTRPRTKISVEALGILQSFIQDVGLYPDEEAIQTLSAQLDLPKYTIIKFFQNQRYYLKHHGKLKDNSGLEVDVAEYKDEELLKDLEESVQDKNANTLFSVKLEEELSVEGSTDVNADLKD
For the molecule B2, in assay [3], the binding result was “no binding”.

B3: CCCTC-binding factor (CTCF) (protein, UniProt Q61164 1-736)
chain: MEGEAVEAIVEESETFIKGKERKTYQRRREGGQEEDACHLPQNQTDGGEVVQDVNSSVQMVMMEQLDPTLLQMKTEVMEGTVAPEAEAAVDDTQIITLQVVNMEEQPINIGELQLVQVPVPVTVPVATTSVEELQGAYENEVSKEGLAESEPMICHTLPLPEGFQVVKVGANGEVETLEQGELPPQEDSSWQKDPDYQPPAKKTKKTKKSKLRYTEEGKDVDVSVYDFEEEQQEGLLSEVNAEKVVGNMKPPKPTKIKKKGVKKTFQCELCSYTCPRRSNLDRHMKSHTDERPHKCHLCGRAFRTVTLLRNHLNTHTGTRPHKCPDCDMAFVTSGELVRHRRYKHTHEKPFKCSMCDYASVEVSKLKRHIRSHTGERPFQCSLCSYASRDTYKLKRHMRTHSGEKPYECYICHARFTQSGTMKMHILQKHTENVAKFHCPHCDTVIARKSDLGVHLRKQHSYIEQGKKCRYCDAVFHERYALIQHQKSHKNEKRFKCDQCDYACRQERHMIMHKRTHTGEKPYACSHCDKTFRQKQLLDMHFKRYHDPNFVPAAFVCSKCGKTFTRRNTMARHADNCAGPDGVEGENGGETKKSKRGRKRKMRSKKEDSSDSEENAEPDLDDNEEEEEPAVEIEPEPEPQPQPPPPPQPVAPAPPPAKKRRGRPPGRTNQPKQNQPTAIIQVEDQNTGAIENIIVEVKKEPDAEPAEGEEEEAQAATTDAPNGDLTPEMILSMMDR
On to B3, for which the binding entry in assay [3] was “binds weakly”.

B4: CCCTC-binding factor (CTCF), Q61164 1-736 (protein)
chain: MEGEAVEAIVEESETFIKGKERKTYQRRREGGQEEDACHLPQNQTDGGEVVQDVNSSVQMVMMEQLDPTLLQMKTEVMEGTVAPEAEAAVDDTQIITLQVVNMEEQPINIGELQLVQVPVPVTVPVATTSVEELQGAYENEVSKEGLAESEPMICHTLPLPEGFQVVKVGANGEVETLEQGELPPQEDSSWQKDPDYQPPAKKTKKTKKSKLRYTEEGKDVDVSVYDFEEEQQEGLLSEVNAEKVVGNMKPPKPTKIKKKGVKKTFQCELCSYTCPRRSNLDRHMKSHTDERPHKCHLCGRAFRTVTLLRNHLNTHTGTRPHKCPDCDMAFVTSGELVRHRRYKHTHEKPFKCSMCDYASVEVSKLKRHIRSHTGERPFQCSLCSYASRDTYKLKRHMRTHSGEKPYECYICHARFTQSGTMKMHILQKHTENVAKFHCPHCDTVIARKSDLGVHLRKQHSYIEQGKKCRYCDAVFHERYALIQHQKSHKNEKRFKCDQCDYACRQERHMIMHKRTHTGEKPYACSHCDKTFRQKQLLDMHFKRYHDPNFVPAAFVCSKCGKTFTRRNTMARHADNCAGPDGVEGENGGETKKSKRGRKRKMRSKKEDSSDSEENAEPDLDDNEEEEEPAVEIEPEPEPQPQPPPPPQPVAPAPPPAKKRRGRPPGRTNQPKQNQPTAIIQVEDQNTGAIENIIVEVKKEPDAEPAEGEEEEAQAATTDAPNGDLTPEMILSMMDR
For B4, the binding entry in assay [4] was “no binding”.
